Measurements reported in PubChem BioAssay AID493246 (Drosophila RNAi Screening Center, 2011)
The screen tested about 21,000 reagents; below is an unselected part of those that have a named target and a result. In the full data, 429 (2%) are marked active. 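Values are raw and not normalised between plates; calls rest on per-plate z-scores that were not deposited.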 A number with no mark means an inactive call. The record does not give: the amount of reagent, the time to read-out.

- Aim: 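Identify essential fly genes by loss of cell viability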 (primary screen)
- Cell system: Drosophila Kc and S2R+ cells
- Reagents: long dsRNA against Drosophila genes
- Measured: 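Raw, unnormalised count of remaining cells in each well; per-plate z-scores of cell number underlie the calls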
- Direction: Kc cell number and S2R+ cell number: higher = more cells remaining
- Active means: 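Counted as a hit if cell number falls by a z-score of at least 3 within its plate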

{"target gene":"CG12384","dsRNA":"DRSC06145","Kc cell number, rep 1":1.51e6,"Kc cell number, rep 2":1.64e6,"S2R+ cell number, rep 1":1.06e6,"S2R+ cell number, rep 2":1.07e6}
{"target gene":"CG31872","dsRNA":"DRSC02568","Kc cell number, rep 1":1.71e6,"Kc cell number, rep 2":1.66e6,"S2R+ cell number, rep 1":1.12e6,"S2R+ cell number, rep 2":1.29e6}
{"target gene":"CG31872","dsRNA":"DRSC02572","Kc cell number, rep 1":1.76e6,"Kc cell number, rep 2":1.76e6,"S2R+ cell number, rep 1":1.20e6,"S2R+ cell number, rep 2":1.40e6}
{"target gene":"RpS13","dsRNA":"DRSC03419","Kc cell number, rep 1":"7.27e5 (active)","Kc cell number, rep 2":8.65e5,"S2R+ cell number, rep 1":4.89e5,"S2R+ cell number, rep 2":5.85e5}
{"target gene":"Stim","dsRNA":"DRSC20158","Kc cell number, rep 1":5.82e5,"S2R+ cell number, rep 1":9.29e5}
{"target gene":"CG31999","dsRNA":"DRSC17131","Kc cell number, rep 1":1.45e6,"Kc cell number, rep 2":1.44e6,"S2R+ cell number, rep 1":1.02e6,"S2R+ cell number, rep 2":1.10e6}
{"target gene":"CG31999","dsRNA":"DRSC17133","Kc cell number, rep 1":1.44e6,"Kc cell number, rep 2":1.40e6,"S2R+ cell number, rep 1":9.91e5,"S2R+ cell number, rep 2":1.09e6}
{"target gene":"cnk","dsRNA":"DRSC07595","Kc cell number, rep 1":1.45e6,"Kc cell number, rep 2":1.50e6,"S2R+ cell number, rep 1":1.16e6,"S2R+ cell number, rep 2":1.30e6}
{"target gene":"ptc","dsRNA":"DRSC05117","Kc cell number, rep 1":1.35e6,"Kc cell number, rep 2":1.43e6,"S2R+ cell number, rep 1":9.94e5,"S2R+ cell number, rep 2":1.09e6}
{"target gene":"ptc","dsRNA":"DRSC07669","Kc cell number, rep 1":1.75e6,"Kc cell number, rep 2":1.75e6,"S2R+ cell number, rep 1":1.30e6,"S2R+ cell number, rep 2":1.45e6}
{"target gene":"Nepl4","dsRNA":"DRSC03239","Kc cell number, rep 1":1.33e6,"Kc cell number, rep 2":1.37e6,"S2R+ cell number, rep 1":6.28e5,"S2R+ cell number, rep 2":6.94e5}
{"target gene":"hpRNA:CR32205","dsRNA":"DRSC09890","Kc cell number, rep 1":1.53e6,"Kc cell number, rep 2":1.68e6,"S2R+ cell number, rep 1":1.37e6,"S2R+ cell number, rep 2":1.42e6}

Quoted from the entries so far for reference:
{"target gene":"CG31999","dsRNA":"DRSC17131","Kc cell number, rep 1":1.45e6,"Kc cell number, rep 2":1.44e6,"S2R+ cell number, rep 1":1.02e6,"S2R+ cell number, rep 2":1.10e6}
{"target gene":"CG31999","dsRNA":"DRSC17133","Kc cell number, rep 1":1.44e6,"Kc cell number, rep 2":1.40e6,"S2R+ cell number, rep 1":9.91e5,"S2R+ cell number, rep 2":1.09e6}
